Data as given in PubChem BioAssay AID1259308 (NCATS, 2017).
The deposit covers about 59,000 reagents; below is a random part of them. About 1,510 of all reagents (2.6%) count as active. 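Calls use total luciferase alone and ignore viability, so some active siRNAs may act by altering cell number.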 Reagents against one gene are numbered here. Reagent sequences are not shown.

- Screen: 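Genes whose loss raises luciferase production in HEK293 cells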 (primary screen)
- System: human HEK293 embryonic kidney cells stably expressing firefly luciferase (HEK-CMV-Luc2-Hygro)
- Knock-down reagent: single siRNA against human genes, 0.8 pmol siRNA per well
- Duration: 72 h
- Measurement: 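Luciferase light (ONE-Glo) measured on one replicate plate set and viability (CellTiter-Glo) on the other, scaled to a negative control siRNA, with robust z-scores and luciferase per cell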
- Scale: total luciferase, z-score and total luciferase, % of control: higher = more reporter protein produced; luciferase per cell, z-score: higher = more reporter output per viable cell; viable cells, % of control: higher = more viable cells
- Hit rule: 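An siRNA counts as active if its total luciferase robust z-score exceeds 3; genes with two or more such siRNAs out of three were retested with fresh siRNAs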
- Calls: active = raised luciferase; inactive = no rise

target | reagent | total luciferase, z-score | total luciferase, % of control | luciferase per cell, z-score | viable cells, % of control | call
KLK6 | 1 | -0.738 | 67.2 | -1.26 | 105 | inactive
KLK6 | 2 | -0.32 | 75.5 | -0.412 | 94.1 | inactive
KLK6 | 3 | 2.73 | 136 | 1.81 | 94.4 | inactive
SLC60A1 | 1 | 1.22 | 106 | 1.15 | 87.5 | inactive
SLC60A1 | 2 | -0.746 | 67 | -0.377 | 82.7 | inactive
SLC60A1 | 3 | -0.21 | 77.7 | -0.539 | 100 | inactive
NCKAP1L | 1 | 0.616 | 94.1 | 0.0938 | 103 | inactive
NCKAP1L | 2 | -0.347 | 75 | -0.549 | 96.8 | inactive
NCKAP1L | 3 | 0.369 | 89.2 | 0.537 | 86.6 | inactive
TOMM34 | 1 | -1.99 | 42.2 | -2.88 | 101 | inactive
TOMM34 | 2 | 0.532 | 92.5 | -0.0558 | 105 | inactive
TOMM34 | 3 | -1.02 | 61.6 | -1.41 | 99.7 | inactive
CEP290 | 1 | -0.416 | 73.6 | -0.729 | 99.7 | inactive
CEP290 | 2 | -0.412 | 73.7 | -0.73 | 99.8 | inactive
CEP290 | 3 | 0.586 | 93.5 | 0.315 | 96.2 | inactive
ATXN10 | 1 | 0.808 | 98 | -0.161 | 114 | inactive
ATXN10 | 2 | -0.699 | 68 | -0.687 | 91 | inactive
ATXN10 | 3 | 0.431 | 90.5 | 0.637 | 85.5 | inactive
HDDC2 | 1 | -0.27 | 76.5 | -0.111 | 88 | inactive
HDDC2 | 2 | 0.185 | 85.6 | 0.199 | 90.7 | inactive
HDDC2 | 3 | 0.924 | 100 | 1.07 | 84.4 | inactive
CRADD | 1 | -1.73 | 47.6 | -1.93 | 88.4 | inactive
CRADD | 2 | -0.319 | 75.5 | -0.161 | 88.1 | inactive
CRADD | 3 | -1.31 | 55.8 | -1.48 | 92 | inactive
HCCS | 1 | -0.172 | 78.5 | -0.422 | 98 | inactive
HCCS | 2 | -1.13 | 59.5 | -0.573 | 77.3 | inactive
HCCS | 3 | -0.715 | 67.7 | -0.791 | 93.1 | inactive
SLC25A20 | 1 | 0.643 | 94.7 | 1.06 | 80.1 | inactive
SLC25A20 | 2 | -0.446 | 73 | -1.02 | 107 | inactive
SLC25A20 | 3 | -0.19 | 78.1 | -0.929 | 111 | inactive
PNPLA3 | 1 | 0.413 | 90.1 | -0.228 | 107 | inactive
PNPLA3 | 2 | -0.787 | 66.2 | -1.37 | 106 | inactive
PNPLA3 | 3 | -0.609 | 69.8 | 0.49 | 68.5 | inactive
BPIFB4 | 1 | 0.183 | 85.5 | 0.953 | 74.4 | inactive
BPIFB4 | 2 | 0.83 | 98.4 | 0.424 | 98.3 | inactive
BPIFB4 | 3 | 0.792 | 97.6 | 0.758 | 89.4 | inactive

Reformatted: 3 of the entries above.
ATXN10 #1 | total luciferase, z-score: 0.808; total luciferase, % of control: 98; luciferase per cell, z-score: -0.161; viable cells, % of control: 114; call: inactive
ATXN10 #2 | total luciferase, z-score: -0.699; total luciferase, % of control: 68; luciferase per cell, z-score: -0.687; viable cells, % of control: 91; call: inactive
ATXN10 #3 | total luciferase, z-score: 0.431; total luciferase, % of control: 90.5; luciferase per cell, z-score: 0.637; viable cells, % of control: 85.5; call: inactive

Additional results:
target | reagent | total luciferase, z-score | total luciferase, % of control | luciferase per cell, z-score | viable cells, % of control | call
OR2A1 | 1 | -0.502 | 71.9 | -1.13 | 108 | inactive
OR2A1 | 2 | -2.55 | 31.1 | -2.04 | 59.4 | inactive
OR2A1 | 3 | 0.123 | 84.3 | -0.0524 | 95.5 | inactive
ACER3 | 1 | 0.119 | 84.3 | 0.134 | 90.9 | inactive
ACER3 | 2 | -1.35 | 55.1 | -0.547 | 71.1 | inactive
ACER3 | 3 | 0.721 | 96.2 | 1.8 | 67 | inactive
PTPN1 | 1 | 0.53 | 92.4 | 0.792 | 83.9 | inactive
PTPN1 | 2 | 0.52 | 92.2 | -0.26 | 110 | inactive
PTPN1 | 3 | 0.278 | 87.4 | -0.253 | 104 | inactive
GNG2 | 1 | 0.164 | 85.1 | -0.421 | 106 | inactive
GNG2 | 2 | 0.755 | 96.9 | -0.117 | 112 | inactive
GNG2 | 3 | -0.381 | 74.3 | -0.511 | 95 | inactive
SPAG17 | 1 | -0.178 | 78.4 | -0.741 | 106 | inactive
SPAG17 | 2 | -1.22 | 57.6 | -1.11 | 86.2 | inactive
SPAG17 | 3 | 0.503 | 91.9 | 0.0273 | 102 | inactive
NXPH3 | 1 | -1.36 | 54.8 | -1.65 | 94.6 | inactive
NXPH3 | 2 | 0.353 | 88.9 | 0.283 | 92.2 | inactive
NXPH3 | 3 | 1.25 | 107 | 1.12 | 88.9 | inactive
PDS5A | 1 | -1.07 | 60.6 | -1.05 | 89.2 | inactive
PDS5A | 2 | -0.971 | 62.6 | -1.55 | 105 | inactive
PDS5A | 3 | -1.74 | 47.3 | -0.828 | 65.8 | inactive
